{"source": "patent US20100119620A1", "about": "“SUPPRESSING MICROBIAL GROWTH IN PULP AND PAPER” (priority 2006, published 2010)", "key": {"[1]": {"test": "Compatibility with optical brightening agent: absorbance (350 nm) of Leucophor AP after halogen exposure", "type": "physicochemical", "settings": "60 minutes"}, "[2]": {"test": "Vapor-phase corrosion of carbon steel"}}}
{"compound": "[Na+].[O-]Cl", "note": "[NaOC1, sodium hypochlorite]", "values": [{"measurement": "% Absorbance Relative to Untreated Control Leucophor AP", "setting": "[1]; 2.5 ppm Total C12, Leucophor AP 50 ppm", "value": 60, "unit": "%"}, {"measurement": "% Absorbance Relative to Untreated Control Leucophor AP", "setting": "[1]; 5 ppm Total C12, Leucophor AP 50 ppm", "value": 41, "unit": "%"}, {"measurement": "% Absorbance Relative to Untreated Control Leucophor AP", "setting": "[1]; 10 ppm Total C12, Leucophor AP 50 ppm", "value": 24, "unit": "%"}, {"measurement": "Vapor-Phase Corrosion", "setting": "[2]; 1 ppm Total C12", "value": 1.8, "unit": "mpy"}, {"measurement": "Vapor-Phase Corrosion", "setting": "[2]; 2.5 ppm Total C12", "value": 1.7, "unit": "mpy"}]}
